Measured values as given in paper PMC7862700.
The entries are a selection whose mix differs from that of the whole data set. At the low end of the ranking the order means little.

target: T1, FEV (UniProt Q99581); assay: DAPPL (digital affinity profiling via proximity ligation, sequencing); conditions: 10 mM Tris-HCl pH 7.5, 50 mM NaCl, 1 mM DTT, 4% glycerol, room temperature, 30 min; GST-TFs on glutathione beads, 16-mer random dsDNA library, 0.1% …; high values mean tight binding; double strand, one strand shown; scale: fold enrichment (6-mer frequency, TF over GST control)
T1 sequence: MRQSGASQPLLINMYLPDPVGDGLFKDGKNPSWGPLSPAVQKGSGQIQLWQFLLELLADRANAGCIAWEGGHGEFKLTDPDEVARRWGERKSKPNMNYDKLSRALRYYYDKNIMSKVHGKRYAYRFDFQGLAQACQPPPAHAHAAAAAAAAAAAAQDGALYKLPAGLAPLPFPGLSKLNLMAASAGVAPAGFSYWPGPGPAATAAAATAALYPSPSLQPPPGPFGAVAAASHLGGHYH

| Sequence | binding signal |
| --- | --- |
| GACAGA | 0.659 |
| GAGGGG | 0.53 |
| TGAGGG | 0.643 |
| CATGTG | 0.777 |
| TGAGCC | 0.855 |
| AACGTG | 0.36 |
| GCGGAG | 0.243 |
| GGGGCG | 0.638 |
| GGAACG | 0.622 |
| CGTGGC | 0.9 |
| GATCGG | 0.484 |
| GGCGTC | 0.761 |
| GCGCCA | 0.814 |
| AGTCAT | 0.573 |
| AAGGCG | 0.638 |
| GGAGGT | 0.319 |
| CGCCAG | 0.652 |
| GGATCG | 0.599 |
| GAGTGC | 0.648 |

Pulled one by one from the entries so far:

| Sequence | binding signal |
| --- | --- |
| CGTGGC | 0.9 |
| CATGTG | 0.777 |

Carrying on:

| Sequence | binding signal |
| --- | --- |
| GACAAT | 0.919 |
| GCGCTA | 0.846 |
| GAGTTT | 0.551 |
| CGCATC | 0.936 |
| GAGTTG | 0.462 |
| CGGGAC | 0.577 |
| ATCGTG | 0.403 |
| CACGGG | 0.8 |
| ACCGTA | 0.834 |
| GTTAGG | 0.761 |
| GGGACA | 0.718 |
| CGTTGA | 0.814 |
| TACCGT | 0.644 |
| GAGACC | 0.267 |
| GTGAGG | 0.245 |
| AAGAGC | 0.844 |
| TGAGGA | 0.625 |
| GCCGGC | 0.822 |
| ACCGTG | 0.239 |
